Results deposited as PubChem BioAssay AID686937 (Drosophila RNAi Screening Center, 2013)
The screen tested about 23,000 reagents; shown is an unselected part of those with a known target gene and a result. 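Reduced-secretion tags in replicate 1 do not always agree with the z-scores; no criterion for assigning the tags was given.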 Reagents against one gene are numbered here. A plus sign joins genes that one reagent is predicted to hit. Not given: the amount of reagent.

- Aim: 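Genes in the fly needed for secretion of protein constitutively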 (primary screen)
- Cells: Drosophila S2 cells expressing secreted horseradish peroxidase
- Reagent: long dsRNA against Drosophila genes
- Time to read-out: about 5.5 days (5 days dsRNA, then 12 h reporter induction)
- Treatment: reporter expression induced after 5 days of dsRNA, read 12 h later; inducer not stated
- Measurement: 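Chemiluminescent measurement of peroxidase in the medium 12 h after reporter induction, following 5 days of dsRNA, given as a z-score per plate; higher means more secretion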
- Direction: z-score: higher = more reporter secreted into medium

gene | reagent | z-score, replicate 1 | z-score, replicate 2 | z-score, replicate 3 | z-score, replicate 4 | phenotype, replicate 1
CG3078 | 1 | -0.49 | -0.49 | – | – | –
nullo | 1 | 0.22 | 0.34 | – | – | –
AANATL5 | 1 | 0.47 | 0.24 | – | – | –
ATPsynG | 1 | -3.7 | -0.37 | -0.28 | -2.12 | –
Fum2 | 1 | 0.01 | -0.23 | – | – | –
CG1999 | 1 | 0.17 | 0.42 | – | – | –
PGS1 | 1 | 0.26 | 0.58 | – | – | –
Acyp2 | 1 | -0.05 | 0.01 | – | – | –
Wdr24 | 1 | -0.89 | -1.27 | – | – | –
CG12645 | 1 | 0.28 | 0.37 | – | – | –
Lcp1Psi | 1 | -0.57 | – | – | – | –
Pgam5 | 1 | 0.43 | 0.28 | – | – | –
aub | 1 | 0.42 | 0.38 | – | – | –
CG14427 | 1 | 0.13 | 0.62 | – | – | –
CG30161 | 1 | -0.31 | 0.14 | – | – | –
CG12374 | 1 | 0.24 | 0.37 | – | – | –
Ste:CG33238 + Ste:CG33241 + Ste:CG33236 + 11 more | 1 | 0.23 | 1.66 | – | – | –
Ste:CG33238 + Ste:CG33241 + Ste:CG33236 + 11 more | 2 | 0.56 | 0.09 | – | – | –
CG4294 | 1 | -0.01 | -0.05 | – | – | –
mia | 1 | 0.23 | -0.42 | – | – | –
Bub3 | 1 | -0.17 | -0.56 | – | – | –
RpL37A | 1 | -1.91 | -2.68 | – | – | reduced secretion
CNMaR | 1 | 0.03 | 0.34 | – | – | –
CNMaR | 2 | 0.26 | 0.26 | – | – | –
Pk34A | 1 | 0.15 | 0.07 | – | – | –
Frmd5 | 1 | 0.2 | 0.21 | – | – | –
CG30383 | 1 | 0.13 | – | – | – | –
CG42686 (retired record) | 1 | -2.8 | -1.42 | – | – | reduced secretion
CG42686 (retired record) | 2 | 0.33 | 0.27 | – | – | –
CG42516 + Pbp49 | 1 | 0.46 | 0.41 | – | – | –
vkg | 1 | -0.1 | 0.05 | – | – | –
stau | 1 | 0.29 | 0.38 | – | – | –
DAT | 1 | 0.49 | 0.33 | – | – | –
CG3225 | 1 | 0.34 | 0.4 | – | – | –
Piezo | 1 | 0.19 | 0.31 | – | – | –
Piezo | 2 | 0.49 | 0.18 | – | – | –
CG42570 | 1 | 0.53 | 0.32 | – | – | –
betaCOP | 1 | -5.63 | -6.49 | – | – | reduced secretion
Rpn1 | 1 | -4.5 | -4.36 | – | – | reduced secretion
CG31200 | 1 | 0.2 | 0.28 | – | – | –
Vps8 | 1 | 0.4 | 0.29 | – | – | –
CG3847 | 1 | 0.06 | -1.13 | – | – | –
CG3847 | 2 | 0.11 | 0.21 | – | – | –
CG34109 | 1 | -0.32 | -0.07 | – | – | –
CG34109 | 2 | -0.04 | 0.15 | – | – | –
CG34109 | 3 | -0.11 | 0.22 | – | – | –
RpL38 | 1 | -4.17 | -2.88 | – | – | reduced secretion
su(r) | 1 | 0.15 | 0.3 | – | – | –
CG3397 | 1 | 0.25 | 0.29 | – | – | –

Copied from the listing for reference:
gene | reagent | z-score, replicate 1 | z-score, replicate 2 | z-score, replicate 3 | z-score, replicate 4 | phenotype, replicate 1
Frmd5 | 1 | 0.2 | 0.21 | – | – | –
CG30383 | 1 | 0.13 | – | – | – | –
CG42686 (retired record) | 1 | -2.8 | -1.42 | – | – | reduced secretion
CG42686 (retired record) | 2 | 0.33 | 0.27 | – | – | –
CG42516 + Pbp49 | 1 | 0.46 | 0.41 | – | – | –
vkg | 1 | -0.1 | 0.05 | – | – | –

The listing continues:
gene | reagent | z-score, replicate 1 | z-score, replicate 2 | z-score, replicate 3 | z-score, replicate 4 | phenotype, replicate 1
CG14419 | 1 | 0.17 | 0.5 | – | – | –
CG42566 | 1 | 0.11 | 0.27 | – | – | –
CG13581 | 1 | 0.31 | 0.22 | – | – | –
AttD | 1 | -1.25 | -0.97 | – | – | –
Cc2d2a | 1 | 0.33 | 0.22 | – | – | –
Cc2d2a | 2 | 0.28 | 0.33 | – | – | –
CG34297 | 1 | -0.04 | 0.21 | – | – | –
thoc5 | 1 | -0.08 | 0.05 | – | – | –
MED24 | 1 | -5.61 | -4.5 | – | – | reduced secretion
Ilp4 | 1 | 0.32 | 0.33 | – | – | –
Mur82C | 1 | -1.93 | -1.55 | – | – | reduced secretion
Mur82C | 2 | 0.26 | 0.47 | 0.25 | -0.03 | –
Ubc4 | 1 | 0.56 | 0.37 | – | – | –
CG40439 | 1 | 0.35 | -0.63 | – | – | –
Gle1 | 1 | 0.32 | 0.46 | – | – | –
CG2211 | 1 | 0.35 | 0.36 | – | – | –
CG43098 | 1 | -0.09 | 0.08 | – | – | –
Ccp84Ad | 1 | 0.56 | -0.55 | -0.62 | 0.5 | –
Ccp84Ad | 2 | 0.58 | 0.27 | – | – | –
cuff | 1 | 0.56 | 0.58 | – | – | –
Polr1D + DCTN6-p27 | 1 | -0.06 | -0.47 | – | – | –
ymp | 1 | 0.28 | 0.64 | – | – | –
ymp | 2 | 0.2 | 0.29 | – | – | –
CG34198 | 1 | -3.09 | -2.17 | – | – | reduced secretion
CG4194 | 1 | 0.26 | 0.38 | – | – | –
CG15576 | 1 | 0.33 | -0.15 | – | – | –
nAChRalpha3 | 1 | 0.43 | 0.78 | – | – | –
CG31244 | 1 | -0.44 | 0.03 | – | – | –
Mtr3 | 1 | -0.11 | -0.02 | – | – | –
CG10919 | 1 | -0.01 | 0.25 | – | – | –
CG3198 | 1 | -0.25 | 0.39 | – | – | –
CG31139 | 1 | -0.38 | -0.45 | – | – | –
Uba1 | 1 | -0.19 | -0.88 | – | – | –
